# Primary screen of a compound library

Data taken from ChEMBL document CHEMBL3988442, “University of Dundee, Small-Polar-MMV Screening Library” (2021).

A: 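Whole-cell assay for inhibitors of Mycobacterium tuberculosis growth, labelled Cornell in the record; the read-out is not stated. The concentration is filed as 10 mM, unlikely as a test dose, so the dose is not known. The record gives no direction; compounds strong in two other growth screens of this library score well above the rest, so higher reads as stronger inhibition. Size under these conditions: about 53,000 compounds, about 900 of them at 50% or above in at least one test.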
B: 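Assay on Mycobacterium tuberculosis, filed only as a heat shock assay from Cornell; the read-out is not stated. The concentration is filed as 10 mM, unlikely as a test dose, so the dose is not known. Higher reads as stronger inhibition (inferred: compounds with an IC50 in retests scored well above the rest). Of about 69,000 compounds tested this way, about 930 (1.4%) reached 50% or more in at least one test.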

The filed quantity is “Percent Effect” (%).
The record does not define 0% and 100%; most values in the screen are far below 50% and negative numbers occur (in some assays of this library far below -100).
This is an unselected part of the compounds tested.

Cc1cnc(N2CC3(CCN(C(=O)c4cccnc4)C3)C2)nc1.O=C(O)C(F)(F)F read A: 9.375%; B: -22.03%.
Cc1noc(CN(CCc2cccs2)Cc2cccc(C#N)c2)n1 read B: 22.06%.
CCOc1ccc(NC(C)C(=O)Nc2cc(C)no2)cc1 (stereo not drawn) read A: 35.88%; B: 18.71%.
O=C(Nc1cccc(N2CCCC2)c1)C1CCCN1c1nccs1 (stereo not drawn) read A: 57.22%; B: 5.051%.
CCC(CNC(=O)NC1CCN(C)CC1)Oc1ccccc1Cl (stereo not drawn) read A: -18.41%; B: -10.46%.
Cc1nc(NC(=O)c2nn(-c3ccc(F)cc3C)cc2O)n[nH]1 read A: 0.2737%; B: -4.526%.
CCc1nc(NCCn2cccn2)c2c(n1)c(C)nn2C read B: -15.57%.
CC(C)NC(=O)CCNC(=O)Nc1ccc(-n2cncn2)c(F)c1 read B: 15.76%.
COCCc1noc(CN2CCCC2Cn2cc(C)cn2)n1 (stereo not drawn) read B: -7.318%.
[H][C@@]12CCN(S(=O)(=O)C3CC3)[C@@]1([H])CCN2C(=O)c1ccco1 read A: -39.02%; B: 0.3979%.
Cc1nc(C)n(CC2CCCN(CCc3ccccc3)C2)n1 (stereo not drawn) read A: -21.21%; B: -3.539%.
Cc1nccn1C1CCCN(C(=O)CCNc2ncccn2)C1 (stereo not drawn) read A: -5.055%; B: -3.525%.
CN(C)c1cc(CNC(=O)Nc2nnc(C3CC3)s2)ccn1 read B: -37.22%.
COc1ccc([C@@H]2CN(c3cc(OC)nc(N)n3)C[C@H]2N(C)C)cc1 read A: 19.76%; B: 3.348%.
[H][C@@]12CCN(Cc3ccoc3)C[C@@]1([H])O[C@H](c1ccnc(C(C)C)n1)C2 read A: 0.1937%; B: -25.31%.
O=C(c1cccnc1OCC(F)(F)F)N1CCCn2ncnc21 read A: -29.58%; B: -6.113%.
CCN1CCN(c2ccc(F)cc2C(C)NCc2ccncc2)CC1 (stereo not drawn) read A: 9.284%; B: -26.29%.
Cc1nnsc1CN1CCCC1c1nc(-c2ccccc2)no1 (stereo not drawn) read A: 37.74%; B: 4.572%.
CCCc1nc(CN(CC)C(=O)c2ccc3[nH]cnc3c2)no1 read A: -13.67%; B: -2.557%.
[H][C@@]12COC[C@]1(c1nc(C)no1)CN(S(C)(=O)=O)C2 read A: -26.46%; B: 9.065%.
CO[C@@H]1c2ccccc2C2(CCN(C(=O)CNC(=O)C(C)C)CC2)[C@H]1O read A: 0.741%; B: 3.251%.
COC(=O)Cn1c(=O)nc2n1C(=O)N(c1ccc(Cl)cc1)C2 read A: 14.81%; B: -0.5837%.
CC(C)(C)c1noc(CCC(=O)N2CCN(Cc3ccc(Cl)s3)CC2)n1 read B: 8.008%.
CN(C)C(=O)CN(C)C(=O)c1csc(Br)c1 read A: -12.91%; B: -11.97%.
Cc1cc(C(F)(F)F)nc(CNC(=O)CCCN2CCCCC2)n1 read A: 27.32%; B: -0.375%.
Cc1nc(C)c(C(=O)N2CCC(O)(Cn3ccc4ccncc43)CC2)s1 read A: -6.181%; B: 4.452%.
Cc1ccc(Br)c(S(=O)(=O)NCc2cnn(C)c2)c1 read A: 13.45%; B: 4.175%.
O=C(NCCCn1nc2ccccn2c1=O)NCC(C1CC1)C1CC1 read A: 22.44%; B: 15.56%.
CCc1nc(N)nc(NCc2cnn3cccnc23)c1C read A: 17.47%; B: -12.71%.
CC(=O)N1CCC(c2nc3ccc(-c4ccnn4C)cn3n2)CC1.O=C(O)C(F)(F)F read A: 36.45%; B: -28.23%.
Cc1cnn(CC(C)Nc2nc3ccccc3o2)c1 (stereo not drawn) read B: -0.1449%.
O=C(c1cnn2c1OCCC2)N1CCC(Cc2ccccc2)CC1 read A: 7.259%; B: -11.26%.

The last 2 entries again:

{"compound": "Cc1cnn(CC(C)Nc2nc3ccccc3o2)c1", "stereo": "stereo not drawn", "B": -0.1449}
{"compound": "O=C(c1cnn2c1OCCC2)N1CCC(Cc2ccccc2)CC1", "A": 7.259, "B": -11.26}